Assay results published in PubChem BioAssay AID504467 (National Center for Advancing Translational Sciences (NCATS), 2011).
Out of some 330,000 compounds screened, about 7,700 (2.3%) were called active. The shares of active, inactive and inconclusive entries below differ from those in the screen. The call rests on the fitted dose curve; in most records, active means well fitted inhibition curve with a large enough effect; inconclusive means small, poorly fitted or top-dose-only effect, or effect the other way; inactive means flat fitted curve, though single readings scatter. Potencies beside an inconclusive call are fits to weak or partial responses and may not hold up.

Experiment: qHTS screen for small molecules that inhibit ELG1-dependent DNA repair in human embryonic kidney (HEK293T) cells expressing luciferase-tagged ELG1; further: nearly all actives have a fitted effect of over 55% in size
Conditions: HEK293T ELG1-luciferase reporter, luminescence, 16 h, DNA damage induced by 5-fluorouridine; activity change, negative = inhibition: at 46.1 µM (top of the series)
Outline: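 Cells (2,000 per well) received 5-fluorouridine plus test compound or DMSO and were incubated 16 hr at 37 °C, 5% CO2. Luciferase activity was read by luminescence 30 min after ONE-Glo addition; signal suppression marked inhibition of damage-induced ELG1 function.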
On the % scale 0 is the no-effect control and ±100 the full control effect; potency means the concentration at half of the fitted maximal effect.

SMILES | activity change, negative = inhibition | Potency
O=C(Nc1cc(S(=O)(=O)N2CCOCC2)ccc1O)c1ccc(NS(=O)(=O)c2ccc(Cl)s2)cc1 | inactive: 22.6% | 
NC(=O)c1ccccc1NC(=O)N1CCOCC1 | inactive: -5.48% | 
COc1ccc(C(=O)Nc2ccc3c(c2)n(C)c(=O)n3C)cc1OC |  | inconclusive: 23.1 µM [activator, partial curve]
COC(=O)CCNc1ccc2c(c1)OCCO2 |  | inconclusive: 18.4 µM [activator, partial curve]
O=C(Nc1ccon1)c1ccc2c(c1)OCO2 |  | inconclusive: 16.4 µM [activator, partial curve]
Cc1ccc(N2C(=O)c3cccc4c(N)ccc(c34)C2=O)c2cccnc12 |  | inconclusive: 0.058 µM [inhibitor, partial curve, poor fit]
COc1ccc(NC(=O)CN2C(=O)NC(c3ccccc3)(c3ccccc3)C2=O)cc1 | inactive: 0.848% | 
COc1cccc(-c2nc(CS(=O)(=O)CC(=O)Nc3ccccc3Cl)c(C)o2)c1 | inactive: -5.63% | 
COc1ccc(OC)c(NC(=O)C2CCCN2S(=O)(=O)c2cccc3nsnc23)c1 (stereo not drawn) |  | inconclusive: 0.103 µM [activator, full curve, poor fit]
CN(c1ccc(C(=O)N2CCCCCC2)cc1)S(=O)(=O)c1ccc(Cl)cc1 |  | inconclusive: 5.8 µM [inhibitor, full curve]
O=C(Nc1nnc(-c2ccccc2Cl)o1)c1nc2ccccc2s1 |  | inconclusive: 25.9 µM [activator, single point]
COc1ccc2sc(-c3ccc(N(C)C)cc3)c(C#Cc3cncn3C)c2c1 | inactive: -11.3% | 
CCCSc1nc2c(cnn2-c2ccccc2)c(=O)[nH]1 |  | inconclusive: 6.51 µM [activator, partial curve, poor fit]
CC1CCN(CCNC(=S)Nc2ccc(Cl)cc2)CC1 | inactive: 6.84% | 
CCOC(=O)C1=CC[C@@H](c2cccc(C)c2)N(S(=O)(=O)c2ccc(C)cc2)[C@H]1C(=O)OCC | inactive: -3.94% | 
CC(=O)c1sc(NC(=O)Cc2c(F)cccc2Cl)nc1C | inactive: 7.44% | 
N=c1n(Cc2ccccc2)c2ccccc2n1Cc1ccccc1 |  | inconclusive: 20.6 µM [inhibitor, partial curve, poor fit]
O=C(CSc1ncccn1)NCc1ccccc1 |  | inconclusive: 18.4 µM [activator, single point]
O=C(NCc1ccccc1)C(c1ccco1)N(C(=O)c1ccccn1)c1ccccc1 (stereo not drawn) | inactive: -2.65% | 
CCOC(=O)C1(Cc2cccc(Cl)c2)CCCN(C(=O)c2cc(C)on2)C1 (stereo not drawn) |  | inconclusive: 20.6 µM [activator, single point]
CC(C)Oc1ccc(S(=O)(=O)N2CCCCC2)cc1NC(=O)C1CSC2(C)CCC(=O)N12 (stereo not drawn) |  | inconclusive: 5.17 µM [inhibitor, single point]
O=C(Cn1nc2ccccc2n1)N/N=C/c1cc(Cl)cc([N+](=O)[O-])c1O |  | inconclusive: 18.3 µM [inhibitor, single point]
O=C(NCCO)c1ccc2c3n(nc2c1)-c1ccc(Cl)cc1CO3 |  | inconclusive: 10.3 µM [activator, partial curve]
CCC[C@@H](CN1CCC[C@H]1CN1C(N)=NC[C@@H]1Cc1ccccc1)N1C[C@@H](Cc2ccccc2)N(CCCC2CCCC2)C1=N | inactive: 11.3% | 
CC(=O)c1cccc(NC(=O)C(OC(=O)c2ccccc2NS(=O)(=O)c2cccs2)c2ccccc2)c1 (stereo not drawn) | inactive: -8.61% | 

5 entries picked at random from the list so far, as already listed:
SMILES | activity change, negative = inhibition | Potency
CC1CCN(CCNC(=S)Nc2ccc(Cl)cc2)CC1 | inactive: 6.84% | 
CC(=O)c1cccc(NC(=O)C(OC(=O)c2ccccc2NS(=O)(=O)c2cccs2)c2ccccc2)c1 (stereo not drawn) | inactive: -8.61% | 
NC(=O)c1ccccc1NC(=O)N1CCOCC1 | inactive: -5.48% | 
O=C(NCc1ccccc1)C(c1ccco1)N(C(=O)c1ccccn1)c1ccccc1 (stereo not drawn) | inactive: -2.65% | 
CCCSc1nc2c(cnn2-c2ccccc2)c(=O)[nH]1 |  | inconclusive: 6.51 µM [activator, partial curve, poor fit]

The list goes on.

SMILES | activity change, negative = inhibition | Potency
CNC(=S)N/N=C/c1cc(C)n(-c2ccc(Cl)c(Cl)c2)c1C |  | inconclusive: 6.51 µM [activator, partial curve, poor fit]
Cc1ccc(C)c(N2CCN(C(=O)c3ccc(Cn4c(=O)[nH]c5ccccc5c4=O)cc3)CC2)c1 |  | inconclusive: 29.1 µM [inhibitor, single point]
CC(C)(C)c1ccc(C(=O)c2c[nH]c(C(=O)NCc3ccco3)c2)cc1 |  | inconclusive: 29.1 µM [activator, partial curve, poor fit]
O=C(c1cccn2c(=O)c3cc4ccccc4cc3nc12)N1CCN(c2ccccc2)CC1 |  | inconclusive: 11.6 µM [activator, partial curve]
Cc1cccc(NC(=O)c2ccc3c(c2)OCCO3)c1C |  | inconclusive: 16.4 µM [activator, partial curve]
O=C(CN1CCc2ccccc2C1)Nc1ccccc1Cl | inactive: 3.92% | 
CCOC(=O)c1ccc(Nc2cc(C)nc(-c3ccccc3)n2)cc1 |  | inconclusive: 29.1 µM [inhibitor, single point]
C/C(=N\NC(=S)NCc1ccccc1)c1ccc2ccccc2c1OC(F)F |  | inconclusive: 23.1 µM [inhibitor, single point]
N#Cc1ccc(Oc2nc(Nc3ccc(F)cc3)nc(N3CCCC3)n2)cc1 |  | active: 16.4 µM
COc1cc(OC)cc(-c2oc(=O)c3cc(OC)c(OC)cc3c2C(F)(F)F)c1 | inactive: -19.7% | 
Cc1ccc(N(C(=O)Cc2cccs2)C(C(=O)NCC2CCCO2)c2ccncc2)cc1 (stereo not drawn) |  | inconclusive: 20.6 µM [activator, partial curve]
COC(=O)C(Cc1ccccc1)NC(=O)CNC(=O)c1sc2ccccc2c1Cl (stereo not drawn) | inconclusive: 38.1% [activator] | 
Cc1ccccc1-c1noc(CCC(=O)NCC2CCCO2)n1 (stereo not drawn) | inactive: 3.52% | 
CCN(CC)C(=S)NC(=O)C12CC3CC(CC(C3)C1)C2 | inactive: 10.2% | 
O=C(Nc1cccc(S(=O)(=O)N2CCCCC2)c1)C1CC(=O)N(c2ccc3c(c2)OCCO3)C1 (stereo not drawn) | inactive: -18.8% | 
CCC(=O)Nc1nnc(S(=O)(=O)N(CC)c2cc(C)cc(C)c2)s1 | inactive: -13.7% | 
O=C(Nc1ccon1)c1cc2ccccc2oc1=O |  | inconclusive: 9.2 µM [activator, partial curve, poor fit]
C#CCN(CC=C)C(=O)c1ccc(OC2CCN(S(=O)(=O)N(C)C)CC2)cc1 |  | active: 20.6 µM
Cc1cc2nc(N3C(=O)CNC3=S)sc2cc1C |  | inconclusive: 4.11 µM [activator, full curve]
Cc1ccc(C)c(SCC(=O)OC/C(O)=C(\C#N)c2nc3ccccc3[nH]2)c1 |  | inconclusive: 20.6 µM [activator, single point]
CC(=O)Nc1c(O)n(C)c2ccccc12 | inactive: 5.04% | 
COc1ccc2ccccc2c1/C=N/NC(=O)c1cccc([N+](=O)[O-])c1 | inactive: -4.6% | 
COc1ccc2sc3ccccc3c(=O)c2c1 |  | inconclusive: 20.6 µM [activator, partial curve]
CN(C(=O)c1ccc(C#N)cc1)c1nnc(-c2ccccn2)s1 |  | inconclusive: 29.1 µM [activator, single point]
COCCCNC(=O)c1ccc2c(c1)OCO2 |  | inconclusive: 18.4 µM [activator, partial curve, poor fit]

SMILES | activity change, negative = inhibition | Potency
COc1cc2cc(CN(Cc3cccnc3)C(=O)NCc3ccccc3)c(=O)[nH]c2cc1OC |  | inconclusive: 23.1 µM [inhibitor, single point]
O=C(N/N=C1\CC(c2ccccc2)Oc2ccccc21)c1cccnc1 (stereo not drawn) |  | inconclusive: 29.1 µM [inhibitor, single point]
Cc1ccc(-c2nnn(CC(=O)N3CCCCC3)n2)o1 |  | inconclusive: 18.3 µM [activator, single point]
Fc1ccccc1CSc1nnc(-c2cccnc2)o1 |  | inconclusive: 14.6 µM [activator, partial curve]
CN1CCC(=O)N([C@H](CSc2ccccc2)Cc2ccccc2)CC1 | inactive: 16% | 
COc1cccc(C2CC(c3ccccc3)=NN2S(=O)(=O)c2ccc(C)cc2)c1OC (stereo not drawn) | inactive: -10.6% | 
O=C(Nc1ccc(F)cc1F)C1CCCN1S(=O)(=O)c1ccc(-c2ccc(=O)[nH]n2)s1 (stereo not drawn) |  | inconclusive: 29.1 µM [inhibitor, single point]
COC(=O)c1cc(Cl)c(NC(=O)c2cc3ccccc3o2)cc1OC | inactive: 1.51% | 
Cc1cccc(NC(=S)N2CCOCC2)c1C | inactive: 7.19% | 
CCC(C)C(NC(=O)OC(C)(C)C)C(=O)NC(C)C(N)=O (stereo not drawn) | inactive: 0.3% | 
CC(C(=O)NC1CCCC1)N(C(=O)Cn1nnc(-c2ccc(F)cc2)n1)c1ccccc1F (stereo not drawn) |  | active: 16.4 µM
CCOc1ccccc1CNC(=O)Cn1nc(C)c2c(C)n(-c3ccc(C)cc3)nc2c1=O |  | active: 2.91 µM
Cc1[nH]c2ccc(C(=O)N3CCN(Cc4ccccc4)CC3)cc2c1C | inactive: 16.7% | 
O=C1C(C=NCCCN2CCCC2=O)=C(O)c2ccccc21 |  | inconclusive: 9.2 µM [activator, partial curve]
O=[N+]([O-])c1ccc(NNC(=S)Nc2ccc(F)cc2)cc1 |  | inconclusive: 29.1 µM [activator, single point]
O=C(CCl)NCCNC(=O)c1cc(OCC(F)(F)F)ccc1OCC(F)(F)F | inactive: -11% | 
O=C(CSc1nnc(-c2ccccc2)o1)c1ccc2c(c1)OCCO2 |  | inconclusive: 16.4 µM [activator, single point]
Cc1ccc(OCC(=O)Nc2ccc(N3CCN(C(=O)c4ccco4)CC3)cc2)c(C)c1 |  | active: 10.3 µM
Cc1ccc(C(=O)N/N=C/c2c(O)ccc3ccccc23)cn1 |  | inconclusive: 5.8 µM [inhibitor, single point]
Cc1csc(SC(C)C(=O)NCc2ccc3c(c2)OCO3)n1 (stereo not drawn) | inactive: 15.3% | 
CN(C)S(=O)(=O)Oc1ccc(C(=O)Nc2cccc(Cl)c2)cc1 |  | inconclusive: 32.6 µM [inhibitor, single point]
Cc1cc(C)c(NC(=S)N2CCN(c3ccc([N+](=O)[O-])cn3)CC2)cc1C | inactive: -18.3% | 
CC(NC(=O)Cc1ccc(S(=O)(=O)N2CCOCC2)s1)c1ccc(Cl)c(Cl)c1 (stereo not drawn) |  | inconclusive: 12.6 µM [inhibitor, single point]
